Assay results taken from PMC7901769.
No constants are given. Whether binding was seen depends on the method and setting. Some results given as binding are weak or reduced against the parent protein; the word gives no strength.

What was measured:
[1] = molecular target: T1, human TMEM39A second cytoplasmic loop domain (337-420 a.a.) (human) (UniProt Q9NV64); test: two-hybrid; verification by co-transformation of bait (pGBKT7) and prey (pGADT7) vectors, yeast colony growth
T1 sequence: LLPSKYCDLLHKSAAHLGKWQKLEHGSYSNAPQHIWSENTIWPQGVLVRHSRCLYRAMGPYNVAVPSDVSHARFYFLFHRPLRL

[2] = molecular target: T1, human TMEM39A second cytoplasmic loop domain (337-420 a.a.) (human); test: two-hybrid; library screen: TMEM39A loop domains in pGBKT7 as bait against a normalized universal human cDNA library (Clontech), Matchmaker Gold Yeast Two-Hybrid System

- binding [1]: binds
- binding [2]: binds
B1: human Sec23A C-terminal domain (583-765 a.a.) (domain or fragment, UniProt Q15436 583-765)
chain: HLRRSSFLQVFNNSPDESSYYRHHFMRQDLTQSLIMIQPILYAYSFSGPPEPVLLDSSSILADRILLMDTFFQILIYHGETIAQWRKSGYQDMPEYENFRHLLQAPVDDAQEILHSRFPMPRYIDTEHGGSQARFLLSKVNPSQTHNNMYAWGQESGAPILTDDVSLQVFMDHLKKLAVSSAA
